# The other results are listed elsewhere or left out.
# The chains behind the UniProt entries cited, without tags or fusion partners.
# UniProt Q0JBA9, entry or part of it: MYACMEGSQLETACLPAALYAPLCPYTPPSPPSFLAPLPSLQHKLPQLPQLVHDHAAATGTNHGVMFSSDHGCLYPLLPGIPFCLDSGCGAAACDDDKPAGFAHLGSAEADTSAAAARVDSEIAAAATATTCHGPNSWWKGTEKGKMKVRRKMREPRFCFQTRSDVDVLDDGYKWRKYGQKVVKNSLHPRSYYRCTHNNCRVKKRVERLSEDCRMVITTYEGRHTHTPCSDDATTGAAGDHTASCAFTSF
# Molecular target: OsWRKY34 (Oryza sativa, UniProt Q0JBA9 1-250)
# Test: protein-binding microarray (RPBM); PBS, 2% BSA, 51.3 ng/ul salmon testes DNA, 50 uM zinc acetate, 200 nM TF, 25 C, 1 h; high values mean tight binding
# Conditions: protein: recombinant; tags: N-terminal polyhistidine and DsRed monomer fusion (pET32a); label: CyDye5-dUTP incorporated in the synthesized complementary strand; 3' TTTTT single-stranded linker to array surface; dsDNA, one strand shown
# In short: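 Per-feature fluorescence intensity (arbitrary units), read on an Axon 4000B scanner, is the binding signal. Transcription factors carrying an N-terminal polyhistidine tag and DsRed fusion were expressed in E. coli BL21-CodonPlus and purified on Ni–NTA. A custom Agilent array, made double-stranded by primer extension with Cy5-dUTP and blocked with 2% BSA, was incubated with 200 nM protein in PBS, 2% BSA, salmon testes DNA and 50 µM zinc acetate at 25 °C for 1 h and then washed.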
row,Sequence,binding signal
1,GATGGGGTTGAGTCGATTCCTGCTGATGGAACTAGGGGAGCGGAGTCACCTAGTGCAG,8450 fluorescence intensity (a.u.)
2,GTTCTAAAATATAACAACTTCTTTACCTACATTTCCTTCTCGGAGTCACCTAGTGCAG,8730 fluorescence intensity (a.u.)
3,CTCCGTTCTTCCCCGCCGACTCCTTCCCTCCGTTCTCCTTCGGAGTCACCTAGTGCAG,8550 fluorescence intensity (a.u.)
4,CTCGACGGATTTTCTTTTTATTTTTGGTTTCCAAAGTATGCGGAGTCACCTAGTGCAG,8510 fluorescence intensity (a.u.)
5,GGCAATCACTCATCGCCTCTCGTCTTCCTGTTGCCCTGTTCGGAGTCACCTAGTGCAG,8150 fluorescence intensity (a.u.)
6,TGCTGTGAATTTACTCCTCTATAATCTATTACTAGTACAACGGAGTCACCTAGTGCAG,9870 fluorescence intensity (a.u.)
7,GTCCTAGGCATATACTACCCCTTTTCTTCTCCCAATTTCACGGAGTCACCTAGTGCAG,8470 fluorescence intensity (a.u.)
8,TCCTTGATGTGCTGTGTCCTGGATGGTCGATTCTTCATCCCGGAGTCACCTAGTGCAG,9350 fluorescence intensity (a.u.)
9,GTGAAGCTCTCTCTCTCCTCTCACGTGACTGGATCCCTCTCGGAGTCACCTAGTGCAG,8160 fluorescence intensity (a.u.)
10,CTCCTCCGCTCCTCTCTCGCCCACCACCGCGCGCCCTTTCCGGAGTCACCTAGTGCAG,8330 fluorescence intensity (a.u.)
11,TGCTTTGAGTGAAATGTTTCTGGCTTTCTGCTACCCTTTTCGGAGTCACCTAGTGCAG,8640 fluorescence intensity (a.u.)
12,TCCACGTCGCTACGCGCCACCAGCCAGACGGCCTGCCCAACGGAGTCACCTAGTGCAG,8760 fluorescence intensity (a.u.)
13,TACTCAATGTCTAATGGGGTGTTTGGATGGGACTAATTTTCGGAGTCACCTAGTGCAG,13000 fluorescence intensity (a.u.)
14,GCTCAATTCCTTGCTTGTTTGCTTCCATATTACACTACATCGGAGTCACCTAGTGCAG,13000 fluorescence intensity (a.u.)
15,TCGTTGATTTTTGACATGATGTTTGACCATTCTTATTATTCGGAGTCACCTAGTGCAG,9750 fluorescence intensity (a.u.)
16,CCACGCCACGCGCCGCTCTCACTCGGTCACTCTCACTCTTCGGAGTCACCTAGTGCAG,9750 fluorescence intensity (a.u.)
17,GTTTTGTATGGTTCTCTGGATATATTACTGCCTGTAAATTCGGAGTCACCTAGTGCAG,8320 fluorescence intensity (a.u.)
18,CCCTTCGCCGCATAACGAACATTGCACTTTCACATAAAAGCGGAGTCACCTAGTGCAG,8440 fluorescence intensity (a.u.)
19,AATAAGCTTTCACTTTCATCCCAGCACAATATGCATGCAACGGAGTCACCTAGTGCAG,8100 fluorescence intensity (a.u.)
20,CGGTTGGACTAAGTCAACGTGCCGCCTTAGTAAAAATCGCCGGAGTCACCTAGTGCAG,8180 fluorescence intensity (a.u.)
21,CCATTTTTCGTCGCTGGCTCGCTCGCTTTCTCCTCGCGCTCGGAGTCACCTAGTGCAG,11300 fluorescence intensity (a.u.)

# Four entries drawn at random from those above:
row,Sequence,binding signal
14,GCTCAATTCCTTGCTTGTTTGCTTCCATATTACACTACATCGGAGTCACCTAGTGCAG,13000 fluorescence intensity (a.u.)
9,GTGAAGCTCTCTCTCTCCTCTCACGTGACTGGATCCCTCTCGGAGTCACCTAGTGCAG,8160 fluorescence intensity (a.u.)
17,GTTTTGTATGGTTCTCTGGATATATTACTGCCTGTAAATTCGGAGTCACCTAGTGCAG,8320 fluorescence intensity (a.u.)
15,TCGTTGATTTTTGACATGATGTTTGACCATTCTTATTATTCGGAGTCACCTAGTGCAG,9750 fluorescence intensity (a.u.)

# Continued.

row,Sequence,binding signal
1,GTACATATAGCTACCCGAACCACCGCCGCCGCCGCCGCCACGGAGTCACCTAGTGCAG,9870 fluorescence intensity (a.u.)
2,GGAAGGAGGGGAGGAGTAGTAGGAGGAGGAGGAGGAGATGCGGAGTCACCTAGTGCAG,12800 fluorescence intensity (a.u.)
3,TACTATATAATTTTCTTTCATATGTTCTCTATAGTCTATACGGAGTCACCTAGTGCAG,9880 fluorescence intensity (a.u.)
4,AATCACTCGGATTAATCCCTACCGTCCATCCGCGCGCACGCGGAGTCACCTAGTGCAG,8200 fluorescence intensity (a.u.)
5,GGCGGCGGCGGCGGCGGAGGAGGCGGCGGGTCTAGGGTTGCGGAGTCACCTAGTGCAG,9570 fluorescence intensity (a.u.)
6,CTATGTGCCTACTTCCATTCTCCTTCGTCATATTACATAACGGAGTCACCTAGTGCAG,10800 fluorescence intensity (a.u.)
7,TCACCCACCTGTTGACTACCATCACCACTCCTCGTCTGGACGGAGTCACCTAGTGCAG,8590 fluorescence intensity (a.u.)
8,CCGACGCCTACTACTTCGCCCACTAGCCACGCGTGCTGCCCGGAGTCACCTAGTGCAG,9050 fluorescence intensity (a.u.)
9,ATGTCATTTTTTTTTCTTTTTGAAGAATTCTGCCTATATACGGAGTCACCTAGTGCAG,9050 fluorescence intensity (a.u.)
10,TATAATGTCCCTTTTGCTTGCCTTTTTGTTTACAGCATTACGGAGTCACCTAGTGCAG,8280 fluorescence intensity (a.u.)
11,TTGTGGTTTTCTTGAATTGTTAGGTTGGGTTGTGGTTATGCGGAGTCACCTAGTGCAG,9250 fluorescence intensity (a.u.)
12,TCGTCGTGTTCGTGTTTTTTTTCTTCCAATCTGCGCGCGTCGGAGTCACCTAGTGCAG,8990 fluorescence intensity (a.u.)
13,CCGCGTCCGCGCCCGTCCCCACGCCACCAGGCGGTCTCCGCGGAGTCACCTAGTGCAG,8290 fluorescence intensity (a.u.)
14,TATACTCCTTTATTATTTATCTGGGCCCACCTTACAACTCCGGAGTCACCTAGTGCAG,8880 fluorescence intensity (a.u.)
15,ATAATCTCCACATGCATCGTCGCTGTATTTTTTGGTTTCACGGAGTCACCTAGTGCAG,8510 fluorescence intensity (a.u.)
16,GGGTCGATACGAATTGGGGATTCTGCAGTTGTTTCTGCTCCGGAGTCACCTAGTGCAG,11900 fluorescence intensity (a.u.)
17,TAATTTCTCTCTTTTGATTCTATTATCATGCTCCGCACAACGGAGTCACCTAGTGCAG,8070 fluorescence intensity (a.u.)
18,TCTAGTCAAGGCTTAGCTCCTGTTGTCTTTCGTTTTTCCGCGGAGTCACCTAGTGCAG,9910 fluorescence intensity (a.u.)
19,ATCACCGTCGTTGTATCCAAATTAAGCTCGCGCCGTGGAACGGAGTCACCTAGTGCAG,8330 fluorescence intensity (a.u.)
20,TCCTGCCACCACCACCATGGCACCAGCTCAGCTCAGCTCACGGAGTCACCTAGTGCAG,8020 fluorescence intensity (a.u.)
21,GTATGACGCCGTTGACTTTTTGGCCAACGTTTGACCATTCCGGAGTCACCTAGTGCAG,41500 fluorescence intensity (a.u.)
